Data taken from PubChem BioAssay AID540256 (National Center for Advancing Translational Sciences (NCATS), 2011).
Where “and” joins values, the source holds several entries; their conditions need not be identical. Equal values may be shown once. About 3,700 (1.2%) of roughly 300,000 compounds were called active. Inconclusive means that the source gave no clear call. Such entries were picked first, then a sample of the others. Calls follow the shape of the full dose curve; tested in HEK293 cells. Potencies of inconclusive entries are doubtful fits and often do not repeat.

Assay: qHTS for Inhibitors of binding or entry into cells for Lassa Virus; also: nearly all actives have a fitted effect of over 50% in size
Settings: Lassa virus pseudotype entry inhibition, cell reporter; activity change, negative = inhibition: at 37.9 µM (top of the series) unless noted
% is scaled to controls: 0 for no effect and ±100 for the full control effect; potency is read from the fitted curve at half-maximal effect.

| SMILES | Potency | activity change, negative = inhibition |
| --- | --- | --- |
| O=C(Nc1ccc(F)cc1)Nc1sccc1-c1nc2ccccc2s1 | inconclusive: 22.4 µM [inhibitor, partial curve, poor fit] | – |
| Cc1nc(NC(=O)c2ccccc2)sc1-c1csc(NCCc2ccccc2)n1 | – | inactive: -3.95% |
| O=C(Nc1ccc([N+](=O)[O-])cc1)Nc1ccc(OC(F)F)c(Cl)c1 | active: 14.6 µM | – |
| COC(=O)c1cc(-c2ccc(C)cc2)c2c(=O)n(C)c(=O)n(C)c2n1 | inconclusive: 4.47 µM [inhibitor, single point] | – |
| CC(C)(C)OC(=O)N1CCC[C@H]1c1nnc(SCc2ccc(Cl)cc2Cl)o1 | inconclusive: 22.4 µM [inhibitor, partial curve, poor fit] | – |
| Cc1cccc(NC(=O)N(Cc2cc3cc(C)ccc3[nH]c2=O)CC2COCCO2)c1 (stereo unspecified) | inconclusive: 12.6 µM [inhibitor, single point] | – |
| Cc1cc(C2N=C(N)Nc3nc4ccccc4n32)c(C)n1-c1ccccc1Cl (stereo unspecified) | inconclusive: 29.1 µM [inhibitor, single point] | – |
| C=CCc1cccc(/C=N/NC(=O)CNc2cccc3ccccc23)c1O | inconclusive: 14.6 µM [inhibitor, single point] | – |
| CN(CC(=O)Nc1ccccc1Br)C(=O)c1ccccc1OCc1ccccc1Cl | inconclusive: 11.2 µM [inhibitor, partial curve, poor fit] | – |
| O=C(Nc1ccccc1)C1=C(c2ccccc2)S(=O)(=O)CCS1(=O)=O | inconclusive: 35.5 µM [inhibitor, single point] | – |
| Cc1ccc(C(=O)Nc2cc(Cl)ccc2N2CCCCC2)s1 | inconclusive: 35.5 µM [inhibitor, single point] | – |
| O=C(CSc1nc(-c2ccccc2)c(-c2ccccc2)[nH]1)NCCN1C(=O)CSC1=O | inconclusive: 12.6 µM [inhibitor, single point] | – |
| C/C(CC(=O)Nc1cc(C)ccn1)=N\NC(=O)C(=O)Nc1cccc(C)c1 | inconclusive: 15.8 µM [activator, partial curve, poor fit] | – |
| Cc1ccc(C)c(S(=O)(=O)N2CCN(C(=O)c3ccc(C)s3)CC2)c1 | inconclusive: 10 µM [inhibitor, partial curve, poor fit] | – |
| COc1cccc(NC(=O)c2ccc(S(=O)(=O)NCc3cccnc3)cc2)c1 | inconclusive: 35.5 µM [inhibitor, single point] | – |
| O=C(NCc1ccccc1Cl)c1ccc2oc(=O)n(Cc3ccccc3)c2c1 | inconclusive: 35.5 µM [inhibitor, single point] | – |
| O=C(Oc1ccc(/C=N/NC(=O)c2ccccc2O)cc1)c1ccccc1 | – | inactive: 21.5% |
| CCCOc1ccc(-c2c(C(=O)N/N=C/c3ccc(OC)cc3)nnn2-c2nonc2N)cc1 | inconclusive: 10 µM [inhibitor, partial curve, poor fit] | – |
| CSCCC(NC(=O)COc1ccccc1)C(=O)N1CCN(c2ccccc2Cl)CC1 (stereo unspecified) | inconclusive: 2.51 µM [inhibitor, partial curve] | – |
| COc1ccc(NC(=O)CC2NCCNC2=O)c(OC)c1 (stereo unspecified) | inconclusive: 6.31 µM [activator, single point] | – |
| COc1cc(/C=C/c2nc3ccccc3c(=O)n2-c2ccccc2O)ccc1O | inconclusive: 8.91 µM [inhibitor, partial curve, poor fit] | – |
| Cc1c(CC(=O)NCc2ccc(F)cc2)c(=O)oc2cc(O)c(Cl)cc12 | – | inactive: -13% [at 46.1 µM] |

Full records from above.
`COC(=O)c1cc(-c2ccc(C)cc2)c2c(=O)n(C)c(=O)n(C)c2n1` is listed with Potency: inconclusive: 4.47 µM [inhibitor, single point]
`O=C(CSc1nc(-c2ccccc2)c(-c2ccccc2)[nH]1)NCCN1C(=O)CSC1=O` is listed with Potency: inconclusive: 12.6 µM [inhibitor, single point]
`CC(C)(C)OC(=O)N1CCC[C@H]1c1nnc(SCc2ccc(Cl)cc2Cl)o1` is listed with Potency: inconclusive: 22.4 µM [inhibitor, partial curve, poor fit]

Additional records

| SMILES | Potency | activity change, negative = inhibition |
| --- | --- | --- |
| COc1ccc(NC(=O)CCc2nc(C3=CCN(Cc4cccc(Cl)c4)CC3)no2)c(OC)c1 | – | inactive: 17.9% [at 46.1 µM] |
| CCOC(=O)N1CCN(C(=O)CSc2nc3c([nH]c4ccccc43)c(=O)n2CC)CC1 | inconclusive: 20 µM [inhibitor, single point] | – |
| C[n+]1c2ccccc2nc2ccc(NCCO)cc21 | inconclusive: 35.5 µM [inhibitor, partial curve, poor fit] | – |
| O=[N+]([O-])c1ccc(NC(=S)NCCc2ccc(Cl)cc2)cc1 | inconclusive: 35.5 µM [inhibitor, single point] | – |
| CC1=C(C(=O)N2CCCCC2)C(c2cccs2)NC(=O)N1 (stereo unspecified) | inconclusive: 1.26 µM [activator, single point] | – |
| Cc1nc(N2CCC(C)CC2)c2oc3ccccc3c2n1 | inconclusive: 20 µM [inhibitor, partial curve, poor fit] | – |
| COCCCN(C(=S)Nc1cc(Cl)cc(Cl)c1)C(C)c1ccncc1 (stereo unspecified) | inconclusive: 22.4 µM [inhibitor, single point] | – |
| Cc1ccc(NC(=O)c2ccccc2Br)c(C(=O)c2ccccc2)c1 | – | inactive: -18.4% [at 46.1 µM] |
| CC(=O)Nc1ccc(C(=O)Nc2ccc(S(=O)(=O)N3CCCCC3)cc2)cc1 | – | inactive: 0.126% |
| CC(=O)N(Cc1cc(=O)[nH]c2ccccc12)c1ccccc1C | inconclusive: 0.631 µM [inhibitor, single point] | – |
| O=C(CSc1nc2ccccc2[nH]1)c1ccccc1F | inconclusive: 35.5 µM [inhibitor, single point] | – |
| Cc1cc(C(=O)N/N=C/c2ccccc2Br)no1 | inconclusive: 20 µM [activator, single point] | – |
| O=C(Nc1ccc(-c2nc3cc(Cl)ccc3o2)cc1)c1cc2ccccc2o1 | – | inactive: 14.2% [at 46.1 µM] |
| C=CCn1c(CC#N)nnc1N1CCOCC1 | inconclusive: 7.3 µM [inhibitor, partial curve, poor fit] | – |
| c1ccc(C(NCCNC(c2ccccc2)c2ccccc2)c2ccccc2)cc1 | inconclusive: 0.651 µM [inhibitor, full curve, poor fit] | – |
| COc1ccc(OC)c2nc(-c3ccc4c(c3)OCO4)ccc12 | inconclusive: 31.6 µM [inhibitor, single point] | – |
| Cc1nnc(NC(=O)c2ccccc2)s1 | inconclusive: 6.31 µM [activator, single point] | – |
| CCC1(C)Cc2c(sc3nc(SC)n(-c4ccc(C)cc4)c(=O)c23)CO1 (stereo unspecified) | – | inactive: -8.2% [at 46.1 µM] |
| COc1ccccc1NC(=O)NNC(=O)CCN1CCOCC1 | inconclusive: 7.94 µM [activator, partial curve] | – |
| COc1cccc(NC(=O)N2CCN(c3cccc(C)c3)C(C)C2)c1 (stereo unspecified) | inconclusive: 0.316 µM [activator, partial curve, poor fit] | – |
| COC(=O)CSCc1nc2ccccc2[nH]c1=O | inconclusive: 6.51 µM [inhibitor, single point] | – |
| CCOC(=O)c1cnc(-n2nc(C)cc2C)nc1NC1CCCCC1 | inconclusive: 10 µM [inhibitor, partial curve, poor fit] | – |

| SMILES | Potency | activity change, negative = inhibition |
| --- | --- | --- |
| CCOC(=O)C1CCCN(Cc2cn3c(-c4cccc(Br)c4)nnc3s2)C1 (stereo unspecified) | – | inactive: -6.15% [at 46.1 µM] |
| Cc1cccc(OCC(=O)Nc2nnc(S(=O)(=O)N3CCc4ccccc43)s2)c1 | – | inactive: 28.1% [at 46.1 µM] |
| O=C(Nc1ccc(Cl)cc1)C(NS(=O)(=O)c1cccs1)c1ccccc1 (stereo unspecified) | inconclusive: 35.5 µM [inhibitor, single point] | – |
| Cc1ccc(C(=O)NCCc2nnc(SCC(=O)Nc3nc(-c4ccccc4)cs3)n2C)cc1 | inconclusive: 18.3 µM [inhibitor, single point] | – |
| CC(=O)c1c(C)oc2c1cc(NS(=O)(=O)c1ccc(Cl)c(C)c1)c1ccccc12 | inconclusive: 2.82 µM [inhibitor, partial curve, poor fit] | – |
| O=S(=O)(NCc1nc2cccnc2n1Cc1ccccc1Cl)c1ccc(F)c(Cl)c1 | – | inactive: -16.2% [at 46.1 µM] |
| O=C(NNC1CC(=O)N(c2ccc(Cl)cc2)C1=O)c1ccccc1Cl (stereo unspecified) | inconclusive: 35.5 µM [activator, partial curve, poor fit] | – |
| CC1(C)Cc2c(c(N3CCOCC3)nc3sc4c(NCc5ccco5)nnnc4c23)CS1 | inconclusive: 35.5 µM [inhibitor, single point] | – |
| S=c1nc2c(n[nH]1)c1ccccc1n2CCc1ccccc1 | inconclusive: 3.16 µM [inhibitor, single point] | – |
| CC(C)(C)c1cc(C(=O)NNc2cccc(Cl)c2)n(Cc2ccccc2)n1 | inconclusive: 7.08 µM [inhibitor, full curve, poor fit] | – |
| CCOc1ccc(N(Cc2ccccc2)C(=O)c2nc(S(C)(=O)=O)ncc2Cl)cc1 | active: 2.51 µM | – |
| Cc1cccc(C)c1NC1=NC2(CCCCC2)N=C(N)N1 | – | inactive: 8.92% |
| CCc1ccc(S(=O)(=O)c2nnn3c2nc(Nc2ccc(NC(C)=O)cc2)c2sccc23)cc1 | inconclusive: 20 µM [inhibitor, single point] | – |
| O=C(NCCC1CCCCN1S(=O)(=O)c1cccs1)C(=O)NCc1ccccc1 (stereo unspecified) | inconclusive: 8.91 µM [inhibitor, partial curve, poor fit] | – |
| Fc1cc(F)c2nc(N3CCCCC3)sc2c1 | – | inactive: 26.8% |
| CSc1cccc(NC(=O)CN(C)S(=O)(=O)c2ccccc2)c1 | – | inactive: 3.7% |
| O=C(CCCCCn1c(=O)[nH]c2ccccc2c1=O)N1CCN(Cc2ccc3c(c2)OCO3)CC1 | active: 16.4 µM | – |
| Cc1[nH]c2ccccc2c1C(=O)/C=C/c1ccccc1 | – | inactive: 15.7% |
| COc1ccc(CCN2C(=O)c3[nH]nc(-c4ccccc4O)c3C2c2cccc(O)c2)cc1OC (stereo unspecified) | inconclusive: 0.73 µM [inhibitor, full curve] | – |
| COCn1c(COc2ccc3ccccc3c2)nc2ccccc21 | – | inactive: 10.8% |
| CCOc1ccccc1NC(=O)COC(=O)CC(C)(C)CC1=NS(=O)(=O)c2ccccc2N1 | inconclusive: 8.91 µM [inhibitor, partial curve, poor fit] and inconclusive: 20 µM [inhibitor, single point] | – |
| COc1ccc(C(=O)NC(=S)Nc2ccc(NC(=O)c3ccco3)cc2)cc1[N+](=O)[O-] | inconclusive: 17.8 µM [inhibitor, partial curve, poor fit] | – |
